US20230241259 (published 2023)

Assay: general procedure: Fmoc solid-phase peptide synthesis
Conditions: whole synthesis, analytical RP-HPLC, area under the curve

PraYCQKFLWTCDSERPCCEGLVCRLWCKIN-NH2
final HPLC purity: 96%

YCQKFLWTCDSERPCCEGLVCRLWCKIN-NH2
final HPLC purity (several disulfide bridges, sequence written open): 96%
